Laboratory results published in paper PMC10217904.
Results are given in words; binding and its absence hold for the method and conditions named. Binding seen in cells or lysates may run through a third protein. Some entries that bind do so weakly or less than the wild type. Where a sequence is shown, tags or fusion partners need not be part of it.

Molecular target: T1, cLUC-ATPc (Arabidopsis) (UniProt P60112)
T1 sequence: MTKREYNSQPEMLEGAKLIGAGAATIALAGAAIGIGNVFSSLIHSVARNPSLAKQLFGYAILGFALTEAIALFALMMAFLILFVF
Assay: split reporter; luciferase complementation imaging (LCI): nLUC and cLUC fusions co-infiltrated 1:1 into N. benthamiana leaves, imaged 48 h after infiltration with 1 mM luciferin

B1: nLUC-PHB3 (protein, UniProt O04331 1-277)
chain: MGSQQAAVSFLSNLAKAAFGLGTAATVLNTSLFTVDGGERAVIFDRFRGVMDQTVGEGTHFLIPILQRPHIFDIRTKPHTFSSISGTKDLQMVNLTLRVLSRPEVSRLPYIFQTLGLEYDEKVLPSIGNEVLKAVVAQFNADQLLTERPHVSALVRESLITRAKDFNIVLDDVAITHLSYGVEFSRAVEQKQVAQQEAERSKFVVMKADQERRAAVIRAEGESEAAQLISDATAKAGMGLIELRRIEASREIASTLARSPNVAYLPGGQSMLFALNR
binding: binds
